According to paper PMC6696985:
These are yes or no findings as the source states them, for the method shown. Some results given as binding are weak or reduced against the parent protein; the word gives no strength. Where a sequence is shown, tags or fusion partners need not be part of it.

How the values were obtained:
[1] = target: Mitofusin2 (mouse (endogenous in cerebral cortex and hippocampus)) (UniProt Q80U63); assay: native gel or EMSA; BN-PAGE of crude mitochondria from cerebral cortex and hippocampus of 8-wk-old WT or MITOL KO (eKO) mice, solubilized with 0.25% DDM or 0.625% digitonin, 20 mM NaCl, 50 mM imidazole pH 7.0; immunoblot with anti-Mfn2
[2] = target: Mitofusin2 (mouse (endogenous in cerebral cortex and hippocampus)) (UniProt Q80U63); assay: sucrose-density gradient centrifugation; mitochondria isolated from cerebral cortex and hippocampus of WT or eKO mice separated by sucrose-density gradient centrifugation; each fraction immunoblotted with anti-Mfn2; method as in Sugiura et al, 2013

binding [1]: binds | binding [2]: binds
B1: Mitofusin2 (protein, UniProt Q80U63 1-757)
chain: MSLLFSRCNSIVTVKKDKRHMAEVNASPLKHFVTAKKKINGIFEQLGAYIQESASFLEDTHRNTELDPVTTEEQVLDVKGYLSKVRGISEVLARRHMKVAFFGRTSNGKSTVINAMLWDKVLPSGIGHTTNCFLRVGGTDGHEAFLLTEGSEEKKSVKTVNQLAHALHQDEQLHAGSMVSVMWPNSKCPLLKDDLVLMDSPGIDVTTELDSWIDKFCLDADVFVLVANSESTLMQTEKQFFHKVSERLSRPNIFILNNRWDASASEPEYMEEVRRQHMERCTSFLVDELGVVDRAQAGDRIFFVSAKEVLSARVQKAQGMPEGGGALAEGFQVRMFEFQNFERQFEECISQSAVKTKFEQHTVRAKQIAEAVRLIMDSLHIAAQEQRVYCLEMREERQDRLRFIDKQLELLAQDYKLRIKQITEEVERQVSTAMAEEIRRLSVLVDEYQMDFHPSPVVLKVYKNELHRHIEEGLGRNLSDRCSTAIASSLQTMQQDMIDGLKPLLPVSMRNQIDMLVPRQCFSLSYDLNCDKLCADFQEDIEFHFSLGWTMLVNRFLGPKNSRRALLGYSDQVQRPLPLTPANPSMPPLPQSSLTQEELMVSMVTGLASLTSRTSMGILVVGGVVWKAVGWRLIALSFGLYGLLYVYERLTWTTKAKERAFKRQFVEYASEKLQLIISYTGSNCSHQVQQELSGTFAHLCQQVDITRDNLEQEIAAMNKKVEALDSLQSRAKLLRNKAGWLDSELNMFTHQYLQPSR
